From the supplement of paper PMC12282887
Further values from the same series stand in other lists.

Tests used:
Assay in all cases: fitness (OD AUC treated / untreated) (fraction); higher = more growth
[1] = system: E. coli BW25113 Drob + rob
Experimental: (§1)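 MIC curves of ciprofloxacin or amoxicillin, with or without 55.5 µg/ml caffeine, against E. coli BW25113 wild type, deletion mutants (ΔmicF, ΔompF, Δrob) and complemented strains. Assays ran in LB at 37°C in 96/384-well plates. Fitness is the OD600 AUC over 8 h divided by the no-drug control; 3-4 biological replicates.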

[2] = system: E. coli BW25113 DmicF; conditions: caffeine concentration 55.4857 µg/ml
Experimental: as §1

[3] = system: E. coli BW25113 DompF + ompF; conditions: antibiotic concentration 0.00682 µg/ml; caffeine concentration 0 µg/ml
Experimental: as §1

[4] = system: E. coli BW25113 DompF
Experimental: as §1

O=C(O)c1cn(C2CC2)c2cc(N3CCNCC3)c(F)cc2c1=O [Ciprofloxacin]
fitness
Conditions | caffeine concentration 0 µg/ml | caffeine concentration 55.4857 µg/ml
[1], antibiotic concentration 0.00227 µg/ml | 1.09 | –
[1], antibiotic concentration 0.00455 µg/ml | 0.951 | 0.983
[1], antibiotic concentration 0.00682 µg/ml | 0.613 | 0.826
[1], antibiotic concentration 0.00909 µg/ml | 0.219 | 0.595
[1], antibiotic concentration 0.01136 µg/ml | 0.0498 | 0.259
[1], antibiotic concentration 0.01364 µg/ml | 0.0351 | 0.0964
[1], antibiotic concentration 0.01591 µg/ml | 0.0317 | 0.0528
[1], antibiotic concentration 0.01818 µg/ml | 0.0372 | 0.0395
[1], antibiotic concentration 0.02045 µg/ml | 0.0354 | 0.0361
[1], antibiotic concentration 0.02273 µg/ml | 0.0349 | 0.0354
[1], antibiotic concentration 0.025 µg/ml | 0.0306 | 0.0359
[4], antibiotic concentration 0.00682 µg/ml | 1.1 | 1.01
[4], antibiotic concentration 0.01364 µg/ml | 1.01 | 1.03
[4], antibiotic concentration 0.02045 µg/ml | 0.817 | 0.776
[4], antibiotic concentration 0.02727 µg/ml | 0.495 | 0.566
[4], antibiotic concentration 0.03409 µg/ml | 0.214 | 0.337
[4], antibiotic concentration 0.04091 µg/ml | 0.097 | 0.216
[4], antibiotic concentration 0.04773 µg/ml | 0.0484 | 0.0767
[4], antibiotic concentration 0.05455 µg/ml | 0.031 | 0.0481
[4], antibiotic concentration 0.06136 µg/ml | 0.0281 | 0.065
[4], antibiotic concentration 0.06818 µg/ml | 0.0295 | 0.0558
[4], antibiotic concentration 0.075 µg/ml | 0.0232 | 0.0453

[2]
Conditions | fitness
antibiotic concentration 0.00909 µg/ml | 0.516
antibiotic concentration 0.01136 µg/ml | 0.325
antibiotic concentration 0.01364 µg/ml | 0.139
antibiotic concentration 0.01591 µg/ml | 0.0821
antibiotic concentration 0.01818 µg/ml | 0.04
antibiotic concentration 0.02045 µg/ml | 0.0155

Conditions | fitness
[3] | 0.934
